Our source for the binding values is patent publication US20220193138A1.

Results are given in words; binding and its absence hold for the method and conditions named. Some binding calls cover weakened binding; strength is not graded here. Tags and fused reporters may be left off the sequences shown.

The target of assay [1] is T1, biotinylated human CD73 recombinant protein (human) (UniProt P21589).
T1 sequence (biotinylated (site not stated), looked up): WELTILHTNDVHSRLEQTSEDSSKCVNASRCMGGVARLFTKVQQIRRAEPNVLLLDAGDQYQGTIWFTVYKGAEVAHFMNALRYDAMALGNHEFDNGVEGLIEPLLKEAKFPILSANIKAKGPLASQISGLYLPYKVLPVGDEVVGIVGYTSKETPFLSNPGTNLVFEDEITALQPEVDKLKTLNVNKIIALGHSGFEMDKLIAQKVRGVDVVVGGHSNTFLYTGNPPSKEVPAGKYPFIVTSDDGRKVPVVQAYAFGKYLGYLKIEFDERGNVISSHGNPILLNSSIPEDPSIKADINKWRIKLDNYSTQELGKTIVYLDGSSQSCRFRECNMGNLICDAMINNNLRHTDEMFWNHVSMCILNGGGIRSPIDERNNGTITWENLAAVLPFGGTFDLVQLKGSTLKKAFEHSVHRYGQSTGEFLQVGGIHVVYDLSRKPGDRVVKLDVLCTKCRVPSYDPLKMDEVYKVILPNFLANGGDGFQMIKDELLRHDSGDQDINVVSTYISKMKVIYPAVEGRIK
Description: flow cytometry; biotinylated CD73 on engineered NK cells, detected with PE-labeled streptavidin (FIG. 5, subpart B). In general terms: In flow cytometry, cells or beads pass a laser one at a time.

Assay [2] addresses T1, biotinylated human CD73 recombinant protein (human). Nature of the assay: flow cytometry; biotinylated CD73 on engineered NK cells, detected with PE-labeled streptavidin.

B1: CD73.FcγRIIIa construct (CD73 scFv-FcγRIIIa fusion protein) expressed on engineered human NK cells (protein)
chain: EVQLLESGGGLVQPGGSLRLSCAASGFTFSSYAYSWVRQAPGKGLEWVSAISGSGGRTYYADSVKGRFTISRDNSKNTLYLQMNSLRAEDTAVYYCARLGYGRVDEWGRGTLVTVSSGGGGSGGGGSGGGGSQSVLTQPPSASGTPGQRVTISCSGSLSNIGRNPVNWYQQLPGTAPKLLIYLDNLRLSGVPDRFSGSKSGTSASLAISGLQSEDEADYYCATWDDSHPGWTFGGGTKLTVLITQGLAVSTISSFFPPGYQVSFCLVMVLLFAVDTGLYFSVKTNIRSSTRDWKDHKFKWRKDPQDK
On to B1, for which the binding result in assay [1] and in assay [2] was “binds” each time.
